Results as given in US20040259790A1, “Methods for identifying and administering agents that bias the immune response via dendritic cells” (priority 2003, published 2004).
For at least one compound, name, drawing or mass did not settle the structure.

Tested on: JNK1/2
Experiment: IL-12(p70) production by stimulated DCs with JNK1/2 inhibitor
Format: cell-based, human
Details: inhibitor 1 h before stimulus

## Oc1c2ccccc2c2c3c(cccc13)N=N2 [SP600125]
  IL-12(p70) production induced by E. coli LPS and flagellin when JNK1/2 is blocked: largely abrogated IL-12(p70) production
